Among the data in the supplement of paper PMC12595434, “Development of retinoid nuclear receptor pathway antagonists through targeting aldehyde dehydrogenase 1A3” (iScience, 2025) are melting temperature shift values, retold here.

Sequences of proteins named here, by UniProt entry; tags and fusion partners are left off. A change or cut given only in a name is not applied to a line headed by its entry.
UniProt Q9Y4C2: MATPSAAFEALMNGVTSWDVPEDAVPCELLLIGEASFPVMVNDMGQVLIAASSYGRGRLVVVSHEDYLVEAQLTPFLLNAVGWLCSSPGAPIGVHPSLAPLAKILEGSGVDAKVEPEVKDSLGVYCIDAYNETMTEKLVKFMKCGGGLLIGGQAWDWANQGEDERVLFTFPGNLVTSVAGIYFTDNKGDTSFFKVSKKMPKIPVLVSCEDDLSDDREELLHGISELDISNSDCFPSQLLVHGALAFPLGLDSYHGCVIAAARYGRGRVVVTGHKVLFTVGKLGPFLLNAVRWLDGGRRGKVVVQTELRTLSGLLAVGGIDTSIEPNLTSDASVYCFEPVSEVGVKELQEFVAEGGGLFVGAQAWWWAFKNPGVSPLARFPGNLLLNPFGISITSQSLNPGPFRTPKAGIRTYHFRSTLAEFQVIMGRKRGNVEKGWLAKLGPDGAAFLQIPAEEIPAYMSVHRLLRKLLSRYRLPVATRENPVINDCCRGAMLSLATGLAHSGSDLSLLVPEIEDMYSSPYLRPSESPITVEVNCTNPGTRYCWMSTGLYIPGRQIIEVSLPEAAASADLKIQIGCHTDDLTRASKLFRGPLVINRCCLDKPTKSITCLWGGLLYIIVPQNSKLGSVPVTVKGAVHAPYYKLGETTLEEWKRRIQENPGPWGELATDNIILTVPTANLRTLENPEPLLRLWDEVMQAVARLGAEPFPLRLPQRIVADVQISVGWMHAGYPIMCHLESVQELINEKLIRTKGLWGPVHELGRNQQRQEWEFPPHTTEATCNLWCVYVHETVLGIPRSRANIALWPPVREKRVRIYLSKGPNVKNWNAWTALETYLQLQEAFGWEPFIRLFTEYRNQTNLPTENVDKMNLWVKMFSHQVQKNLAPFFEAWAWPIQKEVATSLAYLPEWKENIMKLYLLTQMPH
UniProt Q9Y3D6: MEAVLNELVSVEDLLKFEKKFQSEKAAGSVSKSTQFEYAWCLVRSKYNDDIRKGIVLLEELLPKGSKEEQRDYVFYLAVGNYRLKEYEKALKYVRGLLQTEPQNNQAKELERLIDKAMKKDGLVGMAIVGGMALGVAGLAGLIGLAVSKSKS
UniProt Q9Y2Q0: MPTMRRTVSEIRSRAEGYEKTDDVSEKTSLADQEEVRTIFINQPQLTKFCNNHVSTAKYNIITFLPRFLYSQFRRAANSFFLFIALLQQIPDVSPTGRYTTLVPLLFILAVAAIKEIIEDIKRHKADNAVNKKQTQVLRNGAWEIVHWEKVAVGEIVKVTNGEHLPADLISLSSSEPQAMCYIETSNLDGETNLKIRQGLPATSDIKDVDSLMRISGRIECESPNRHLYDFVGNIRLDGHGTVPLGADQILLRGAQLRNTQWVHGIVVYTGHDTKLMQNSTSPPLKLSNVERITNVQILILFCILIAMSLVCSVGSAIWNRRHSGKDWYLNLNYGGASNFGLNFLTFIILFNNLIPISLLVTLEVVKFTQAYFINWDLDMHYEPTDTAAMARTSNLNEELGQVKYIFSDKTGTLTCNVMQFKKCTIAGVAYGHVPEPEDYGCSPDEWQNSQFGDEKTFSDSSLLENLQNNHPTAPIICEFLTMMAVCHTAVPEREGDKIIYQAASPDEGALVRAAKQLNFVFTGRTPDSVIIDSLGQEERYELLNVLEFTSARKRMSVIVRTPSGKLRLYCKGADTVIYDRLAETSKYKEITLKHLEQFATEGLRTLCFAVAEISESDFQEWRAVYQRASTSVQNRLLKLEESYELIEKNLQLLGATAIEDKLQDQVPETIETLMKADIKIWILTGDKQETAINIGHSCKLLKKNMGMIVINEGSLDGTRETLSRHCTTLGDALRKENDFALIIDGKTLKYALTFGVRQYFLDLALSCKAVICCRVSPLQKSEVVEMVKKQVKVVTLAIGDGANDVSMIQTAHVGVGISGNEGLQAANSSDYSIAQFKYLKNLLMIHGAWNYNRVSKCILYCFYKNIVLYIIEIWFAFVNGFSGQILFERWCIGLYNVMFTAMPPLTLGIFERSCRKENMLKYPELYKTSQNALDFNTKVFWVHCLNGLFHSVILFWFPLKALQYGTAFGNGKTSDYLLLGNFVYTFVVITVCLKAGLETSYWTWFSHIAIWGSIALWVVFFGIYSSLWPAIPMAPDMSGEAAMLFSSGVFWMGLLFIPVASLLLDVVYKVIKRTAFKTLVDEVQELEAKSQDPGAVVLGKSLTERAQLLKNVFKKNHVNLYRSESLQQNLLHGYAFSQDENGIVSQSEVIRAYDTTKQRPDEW
UniProt Q9Y696: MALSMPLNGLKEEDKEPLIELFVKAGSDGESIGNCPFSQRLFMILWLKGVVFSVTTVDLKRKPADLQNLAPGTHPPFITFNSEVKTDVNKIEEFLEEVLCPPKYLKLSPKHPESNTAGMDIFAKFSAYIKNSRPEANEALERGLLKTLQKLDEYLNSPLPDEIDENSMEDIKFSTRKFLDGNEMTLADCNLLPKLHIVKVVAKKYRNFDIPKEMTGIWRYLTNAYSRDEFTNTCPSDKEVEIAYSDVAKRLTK
UniProt Q9Y6N5: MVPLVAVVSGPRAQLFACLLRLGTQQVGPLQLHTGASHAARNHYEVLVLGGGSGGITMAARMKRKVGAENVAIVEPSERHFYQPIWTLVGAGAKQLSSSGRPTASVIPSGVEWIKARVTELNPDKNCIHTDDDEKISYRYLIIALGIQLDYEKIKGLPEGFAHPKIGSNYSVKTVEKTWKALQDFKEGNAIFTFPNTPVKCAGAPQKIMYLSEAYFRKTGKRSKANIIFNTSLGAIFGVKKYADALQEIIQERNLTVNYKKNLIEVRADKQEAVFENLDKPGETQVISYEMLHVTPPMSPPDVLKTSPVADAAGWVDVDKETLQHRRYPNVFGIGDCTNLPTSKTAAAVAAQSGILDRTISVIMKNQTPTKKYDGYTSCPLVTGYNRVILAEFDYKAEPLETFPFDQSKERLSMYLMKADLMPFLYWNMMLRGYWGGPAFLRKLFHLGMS
UniProt Q9Y6K9, whole entry: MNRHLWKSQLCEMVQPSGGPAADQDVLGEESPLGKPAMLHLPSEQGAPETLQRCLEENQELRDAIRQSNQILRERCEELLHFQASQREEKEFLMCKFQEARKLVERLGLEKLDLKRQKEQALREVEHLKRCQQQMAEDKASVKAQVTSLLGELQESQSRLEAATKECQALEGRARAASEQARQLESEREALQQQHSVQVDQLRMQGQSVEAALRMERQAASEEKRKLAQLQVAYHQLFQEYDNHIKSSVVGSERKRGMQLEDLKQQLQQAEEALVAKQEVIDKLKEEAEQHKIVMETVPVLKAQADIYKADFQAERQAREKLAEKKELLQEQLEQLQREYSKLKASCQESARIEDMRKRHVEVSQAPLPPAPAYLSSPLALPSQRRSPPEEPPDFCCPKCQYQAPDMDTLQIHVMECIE
UniProt Q9Y3S2: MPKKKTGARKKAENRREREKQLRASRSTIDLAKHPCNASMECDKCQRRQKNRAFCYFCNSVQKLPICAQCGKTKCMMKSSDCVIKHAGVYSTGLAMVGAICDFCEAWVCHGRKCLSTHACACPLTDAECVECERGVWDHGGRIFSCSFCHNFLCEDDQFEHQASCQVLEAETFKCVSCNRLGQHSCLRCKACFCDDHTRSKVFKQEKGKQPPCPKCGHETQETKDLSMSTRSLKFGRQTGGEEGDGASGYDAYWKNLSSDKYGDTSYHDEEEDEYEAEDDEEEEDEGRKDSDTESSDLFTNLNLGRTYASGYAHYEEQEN
UniProt Q9Y4B5: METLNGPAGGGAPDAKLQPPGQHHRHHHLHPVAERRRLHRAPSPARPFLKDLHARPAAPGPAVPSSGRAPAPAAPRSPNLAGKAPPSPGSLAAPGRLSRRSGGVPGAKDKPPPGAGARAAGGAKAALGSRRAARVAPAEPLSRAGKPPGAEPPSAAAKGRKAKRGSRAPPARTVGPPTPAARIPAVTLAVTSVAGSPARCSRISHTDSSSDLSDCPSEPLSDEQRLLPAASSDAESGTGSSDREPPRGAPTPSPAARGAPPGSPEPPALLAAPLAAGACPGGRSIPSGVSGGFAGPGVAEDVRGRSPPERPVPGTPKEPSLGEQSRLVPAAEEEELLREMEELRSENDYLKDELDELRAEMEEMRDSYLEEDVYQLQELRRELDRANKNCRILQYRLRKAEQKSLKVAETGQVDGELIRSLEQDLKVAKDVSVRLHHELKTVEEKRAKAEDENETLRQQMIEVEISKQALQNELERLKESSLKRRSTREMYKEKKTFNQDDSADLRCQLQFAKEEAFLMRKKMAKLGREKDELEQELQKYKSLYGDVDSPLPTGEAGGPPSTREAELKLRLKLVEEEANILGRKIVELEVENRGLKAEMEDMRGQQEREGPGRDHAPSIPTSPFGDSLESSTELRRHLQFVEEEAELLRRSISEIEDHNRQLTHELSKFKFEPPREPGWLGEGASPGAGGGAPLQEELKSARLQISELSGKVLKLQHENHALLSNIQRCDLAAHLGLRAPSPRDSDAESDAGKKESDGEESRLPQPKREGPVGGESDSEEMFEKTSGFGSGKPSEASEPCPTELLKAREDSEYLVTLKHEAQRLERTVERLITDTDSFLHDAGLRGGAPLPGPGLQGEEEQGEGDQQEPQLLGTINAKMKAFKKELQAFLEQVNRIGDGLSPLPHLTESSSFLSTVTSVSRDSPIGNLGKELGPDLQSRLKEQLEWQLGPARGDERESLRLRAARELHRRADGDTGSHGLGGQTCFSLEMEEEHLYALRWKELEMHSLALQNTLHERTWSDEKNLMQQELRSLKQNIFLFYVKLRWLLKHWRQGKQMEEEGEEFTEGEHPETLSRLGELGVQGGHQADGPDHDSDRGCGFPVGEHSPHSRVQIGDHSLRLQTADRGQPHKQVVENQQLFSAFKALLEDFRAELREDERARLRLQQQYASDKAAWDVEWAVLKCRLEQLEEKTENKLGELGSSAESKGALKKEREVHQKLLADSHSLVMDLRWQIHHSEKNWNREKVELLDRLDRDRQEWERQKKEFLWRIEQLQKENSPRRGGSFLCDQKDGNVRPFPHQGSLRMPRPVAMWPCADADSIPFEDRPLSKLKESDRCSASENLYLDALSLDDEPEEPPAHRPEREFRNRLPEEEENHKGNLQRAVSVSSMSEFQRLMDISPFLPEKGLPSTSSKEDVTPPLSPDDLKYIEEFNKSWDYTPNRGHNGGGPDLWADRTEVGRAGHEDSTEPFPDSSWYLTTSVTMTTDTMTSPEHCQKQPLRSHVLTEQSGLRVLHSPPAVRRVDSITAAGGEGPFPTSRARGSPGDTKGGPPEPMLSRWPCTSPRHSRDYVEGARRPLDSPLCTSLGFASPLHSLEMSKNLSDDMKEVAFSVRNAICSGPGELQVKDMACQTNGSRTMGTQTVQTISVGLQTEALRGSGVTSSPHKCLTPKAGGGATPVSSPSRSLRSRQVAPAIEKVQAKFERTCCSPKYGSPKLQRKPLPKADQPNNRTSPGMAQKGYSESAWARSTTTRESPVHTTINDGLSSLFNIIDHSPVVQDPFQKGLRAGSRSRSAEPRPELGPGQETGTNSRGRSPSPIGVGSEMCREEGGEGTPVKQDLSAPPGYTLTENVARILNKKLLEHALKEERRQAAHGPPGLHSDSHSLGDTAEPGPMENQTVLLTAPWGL
UniProt Q9Y679: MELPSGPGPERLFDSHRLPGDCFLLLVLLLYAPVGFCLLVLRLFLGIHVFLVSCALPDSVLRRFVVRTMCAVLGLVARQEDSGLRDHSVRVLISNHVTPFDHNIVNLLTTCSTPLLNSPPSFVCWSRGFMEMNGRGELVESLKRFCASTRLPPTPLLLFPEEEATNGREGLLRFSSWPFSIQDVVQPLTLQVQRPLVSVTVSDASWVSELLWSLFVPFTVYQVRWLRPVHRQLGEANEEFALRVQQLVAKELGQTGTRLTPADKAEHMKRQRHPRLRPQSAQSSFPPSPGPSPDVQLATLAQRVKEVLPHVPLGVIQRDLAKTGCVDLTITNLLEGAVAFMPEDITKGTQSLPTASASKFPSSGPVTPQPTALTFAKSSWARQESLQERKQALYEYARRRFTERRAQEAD
UniProt Q9Y2W6: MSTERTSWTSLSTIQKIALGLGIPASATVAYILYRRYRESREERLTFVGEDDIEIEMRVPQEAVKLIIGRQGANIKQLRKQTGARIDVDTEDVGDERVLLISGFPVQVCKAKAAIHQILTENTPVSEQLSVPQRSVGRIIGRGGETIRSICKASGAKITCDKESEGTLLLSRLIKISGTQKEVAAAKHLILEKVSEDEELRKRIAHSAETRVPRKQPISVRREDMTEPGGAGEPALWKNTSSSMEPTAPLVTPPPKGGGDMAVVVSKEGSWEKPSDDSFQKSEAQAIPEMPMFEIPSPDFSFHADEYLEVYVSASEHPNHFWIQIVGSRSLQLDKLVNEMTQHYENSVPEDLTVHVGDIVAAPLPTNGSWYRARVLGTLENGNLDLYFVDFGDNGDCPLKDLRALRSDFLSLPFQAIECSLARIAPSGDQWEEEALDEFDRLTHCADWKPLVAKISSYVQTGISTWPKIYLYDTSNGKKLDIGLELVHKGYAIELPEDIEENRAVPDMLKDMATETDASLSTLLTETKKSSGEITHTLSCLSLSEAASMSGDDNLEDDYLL

This is one part of the list. This is a noisy data set.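 Many melting curves are irregular; where none melted, Tm was taken as 64 °C.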

Compound in one assay: CCc1cnccc1C(=O)Nc1cc2c(cc1F)NC(=O)CC2
As to the kind of experiment: melting temperature shift (DMSO Tm minus MBE1-treated Tm) in cellular thermal proteome profiling; higher = less thermal stabilization by MBE1 (negative = stabilized by MBE1). Particulars: A375; MBE1 concentration: 100 nM.
On to UniProt Q9Y6K8, for which the melting temperature shift is -1.23 °C.
On the same count and under the same terms, under IGF2BP2 (UniProt Q9Y6M1) stands -1 °C; under ATG4B (UniProt Q9Y4P1), -0.226 °C; under TCAF1 (UniProt Q9Y4C2), -0.542 °C.
TRRAP (UniProt Q9Y4A5): the melting temperature shift is -1.45 °C.
For PSAT1 (UniProt Q9Y617), the melting temperature shift was -0.659 °C.
Still for that read-out and setting: with AP4B1 (UniProt Q9Y6B7) the figure was 0.0047 °C; with FIS1 (UniProt Q9Y3D6), -3.24 °C.
Consider TRAF6 (UniProt Q9Y4K3), for which the melting temperature shift was -0.22 °C.
UBE2J1 (UniProt Q9Y385): the melting temperature shift amounted to 0.775 °C.
Still for that read-out and setting: under UTP18 (UniProt Q9Y5J1) stands 0.409 °C; under DDX49 (UniProt Q9Y6V7), -0.678 °C.
As to EXOSC1 (UniProt Q9Y3B2), the melting temperature shift was -0.837 °C.
On the same count and under the same terms, with UniProt Q9Y2U9 the figure was -0.593 °C; with UniProt Q9Y2Q0, -1.83 °C.
Still for that read-out and setting: with CTDP1 (UniProt Q9Y5B0) the figure was -0.243 °C.
CLIC4 (UniProt Q9Y696): the melting temperature shift is -0.569 °C.
Regarding TPRKB (UniProt Q9Y3C4), the melting temperature shift is -1.14 °C.
UniProt Q9Y2S2: the melting temperature shift was 0.629 °C.
Still for that read-out and setting: under RNF114 (UniProt Q9Y508) stands 0.238 °C; under SQRDL (UniProt Q9Y6N5), -3.32 °C.
On the same count and under the same terms, with VPRBP (UniProt Q9Y4B6) the figure was 1 °C; with UniProt Q9Y6A1, -0.878 °C; with IKBKG (UniProt Q9Y6K9), -2.03 °C.
As to WASF2 (UniProt Q9Y6W5), the melting temperature shift came to 1.06 °C.
Still for that read-out and setting: with IRS2 (UniProt Q9Y4H2) the figure was -0.842 °C.
Take UniProt Q9Y4F3: the melting temperature shift is -1.52 °C.
For the target USP16 (UniProt Q9Y5T5), the melting temperature shift was -0.781 °C.
Still for that read-out and setting: under AMDHD2 (UniProt Q9Y303) stands 0.981 °C.
Consider ZNF330 (UniProt Q9Y3S2), for which the melting temperature shift was -0.766 °C.
Still for that read-out and setting: under WDR45 (UniProt Q9Y484) stands 0.57 °C; under TLN1 (UniProt Q9Y490), 0.513 °C; under COQ6 (UniProt Q9Y2Z9), -1.22 °C.
The same measure, in the same setting: under USP15 (UniProt Q9Y4E8) stands 0.311 °C.
In the case of MTCL1 (UniProt Q9Y4B5), the melting temperature shift is -5.61 °C.
As for UniProt Q9Y2K5, the melting temperature shift is -0.952 °C.
On the same count and under the same terms, with AUP1 (UniProt Q9Y679) the figure was -0.104 °C; with WIPI2 (UniProt Q9Y4P8), 0.116 °C.
For HBS1L (UniProt Q9Y450), the melting temperature shift is 0.379 °C.
Same read-out and setting: under UniProt Q9Y2W6 stands 0.287 °C.

The same assay, now with this note: A375; MBE1 concentration: 1 uM.
For UniProt Q9Y6K8, the melting temperature shift came to 0.212 °C.
On the same count and under the same terms, under IGF2BP2 (UniProt Q9Y6M1) stands 0 °C; under ATG4B (UniProt Q9Y4P1), -0.259 °C.
As for TCAF1 (UniProt Q9Y4C2), the melting temperature shift is -0.39 °C.
Same read-out and setting: with TRRAP (UniProt Q9Y4A5) the figure was -0.572 °C; with PSAT1 (UniProt Q9Y617), -0.617 °C; with AP4B1 (UniProt Q9Y6B7), -0.198 °C.
In the case of FIS1 (UniProt Q9Y3D6), the melting temperature shift was determined as 0.0733 °C.
As for TRAF6 (UniProt Q9Y4K3), the melting temperature shift turned out to be 0.799 °C.
Still for that read-out and setting: under UBE2J1 (UniProt Q9Y385) stands -0.287 °C; under UTP18 (UniProt Q9Y5J1), 0.183 °C; under DDX49 (UniProt Q9Y6V7), 0.275 °C.
On the same count and under the same terms, under EXOSC1 (UniProt Q9Y3B2) stands -0.216 °C; under UniProt Q9Y2U9, -0.146 °C; under UniProt Q9Y2Q0, 1.31 °C.
As for CTDP1 (UniProt Q9Y5B0), the melting temperature shift is -0.16 °C.
In the case of CLIC4 (UniProt Q9Y696), the melting temperature shift was 0.409 °C.
Take TPRKB (UniProt Q9Y3C4): the melting temperature shift amounted to 1.29 °C.
In the case of UniProt Q9Y2S2, the melting temperature shift is 0.434 °C.
Take RNF114 (UniProt Q9Y508): the melting temperature shift came to 1.96 °C.
As to SQRDL (UniProt Q9Y6N5), the melting temperature shift was determined as 1.66 °C.
Take VPRBP (UniProt Q9Y4B6): the melting temperature shift was 0.647 °C.
In the case of UniProt Q9Y6A1, the melting temperature shift amounted to 0.122 °C.
On to IKBKG (UniProt Q9Y6K9), for which the melting temperature shift was -0.574 °C.
In the case of WASF2 (UniProt Q9Y6W5), the melting temperature shift turned out to be 0.0611 °C.
Still for that read-out and setting: with IRS2 (UniProt Q9Y4H2) the figure was -0.338 °C; with UniProt Q9Y4F3, 0.259 °C.
In the case of USP16 (UniProt Q9Y5T5), the melting temperature shift is -0.115 °C.
The same measure, in the same setting: with AMDHD2 (UniProt Q9Y303) the figure was -0.55 °C.
On the same count and under the same terms, with ZNF330 (UniProt Q9Y3S2) the figure was 2.03 °C.
Same read-out and setting: under WDR45 (UniProt Q9Y484) stands 0.923 °C.
Regarding TLN1 (UniProt Q9Y490), the melting temperature shift was -0.183 °C.
As to COQ6 (UniProt Q9Y2Z9), the melting temperature shift amounted to 0.318 °C.
Still for that read-out and setting: with USP15 (UniProt Q9Y4E8) the figure was 0.0488 °C; with MTCL1 (UniProt Q9Y4B5), -5.32 °C.
Still for that read-out and setting: with UniProt Q9Y2K5 the figure was 0.813 °C; with AUP1 (UniProt Q9Y679), -0.11 °C; with WIPI2 (UniProt Q9Y4P8), -0.0672 °C.
For the target HBS1L (UniProt Q9Y450), the melting temperature shift amounted to 0.403 °C.
On to UniProt Q9Y2W6, for which the melting temperature shift worked out at 0.226 °C.
